From PubChem BioAssay AID1347423 (Functional Genomics Laboratory (NCATS/FGL), 2020) come the findings set out here.

In all, about 52,000 sequences went through this assay and about 210 (0.4%) were called active.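 The calls were made as follows: active = gene whose silencing raises cell survival under the drug, median off-target-corrected z-score across its silencing RNAs 2 or more; inactive = the rest.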 This is one part of the list.

The experiment in a line: Resistance to Poly (ADP-Ribose) Polymerase inhibitor: Gene Identification via Genome-wide siRNA Screen. Particulars: mouse BRCA2 R2336H ES cells, olaparib, CellTiter-Glo viability; active compounds read high. In outline: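 Genome-wide siRNA screen (3 siRNAs/gene, 20 nM) in mouse ES cells carrying hypomorphic BRCA2 R2336H; olaparib 500 nM added 48 h post-transfection, CellTiter-Glo viability 72 h later. Normalized to plate-median negative control; MAD z-scores, gene median, seed-adjusted.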
With “GCAACACAAGAUUGUAUUGTT against D2Ertd145e”, the z-score was inactive: -2.55.

On to GGAAACUGGAAACAAAACATT against AI429152, for which the z-score is inactive: -0.237.

For “GCUUUAUGGGAGACAAAGGTT against 1700022I11Rik”, the z-score is inactive: 0.67.

With GGAACAUGGCUUAAAGUACTT against Mrpl20, the z-score is inactive: -1.41.

In the case of GCAGGCAUCAUCACGACAUTT against Gprc5c, the z-score was inactive: 0.132.

As for “GGGCUUUAAUACUGAGAAGTT against 1110036H21Rik”, the z-score was inactive: -0.981.

Turning to CAUGAUAGCGAUAGCAAUCTT against Olfr507, the z-score is inactive: 0.609.

Take GGACCCAUCGAAACCUCUATT against Pirb: the z-score is inactive: -0.133.

Turning to GCACCUAGCAGACAAAUAATT against Ppp1r3a, the z-score is inactive: -1.41.

Consider GGCUGUGAGUAAACUUAUATT against Olfr301, for which the z-score is inactive: 0.194.

GGUGAUGGGAAUAAAAACATT against Polg: the z-score was inactive: -0.631.

For the sequence GGCCUCAAGUUGCUAUGCCTT against Wbscr14, the z-score was inactive: 1.13.

For GGGCGAGCUCUUCAAGUUUTT against Mapk4, the z-score was inactive: -0.325.

In the case of “GGGUUUCCUUAUGAGAAAGTT against 1810046J19Rik”, the z-score is inactive: 0.342.

Turning to GCCCUUCACUCUUCCUUUATT against Olfr137, the z-score was inactive: -0.058.

As for GCAUGAUCAAAUUGUAUCUTT against Nde1, the z-score was inactive: 0.367.

With GGAUGGACUUCGUCAUGAATT against Cplx2, the z-score was inactive: -2.26.

With GGACUCUUUGGAACUACAATT against Nup98, the z-score was inactive: -3.13.

GGCUUUCCCAAAGACUUCUTT against Col11a2: the z-score is inactive: -1.73.

Take GGUAAAGUUCACGGUUCCCTT against Fau: the z-score is inactive: -0.429.

GGCAUCGUUUCAGACUCGCTT against Abcc9: the z-score was inactive: -0.65.

With GGAUUAUCAGGAUCUUAUATT against Ate1, the z-score is inactive: 1.06.

“GGGAGACAGAGAAAUCCUGTT against 2310045B01Rik”: the z-score is inactive: 1.34.

With “GGCAUUCACCAUACAAUGATT against 1810045K17Rik”, the z-score was inactive: -1.72.

For the sequence GGGCUCAUCAUUGUUAUUCTT against Olfr394, the z-score is inactive: 0.554.

Turning to “GGCACUGCUAUUAACUACATT against 4933414I15Rik”, the z-score was inactive: 0.505.

Consider CCUUUUACACUCUAGUAUGTT against Ptger4, for which the z-score was inactive: -0.689.

In the case of GCUUAUAGAAAACCAGUAATT against Foxd1, the z-score is inactive: -1.8.

Consider GGAAAACCAAAGGCUCACCTT against Cyp2c29, for which the z-score was inactive: -0.53.

In the case of CGAAAACCACAGGUUUCUGTT against Col5a1, the z-score was inactive: 0.741.

Take GGAUUAGCUCUACAGAAGGTT against Olfr1031: the z-score was inactive: 1.59.

In the case of GCAUUGGCAGACCCGAGUUTT against Pir, the z-score was inactive: -1.35.

GGUACCUCUCAGAUUAAGUTT against Metap1: the z-score is inactive: -0.329.

With GCGGCGAAAAAGAUGCAUGTT against Hbq1, the z-score was inactive: -1.84.

Regarding GCUUGAACCUCAACACCAATT against Gpi1, the z-score is inactive: -1.85.

Turning to CCAGAAUGUAAACUUGGUCTT against Trpv6, the z-score is inactive: -0.602.

As for CGGGUAUCAUGUACUACCUTT against Slc6a9, the z-score is inactive: -0.499.

On to GGAGAAGAUGAUUAAGACCTT against Anp32b, for which the z-score was inactive: -0.309.

Take GGUGGAGAGUGAACAACAATT against Tpr: the z-score was inactive: -2.34.

Turning to GGUUUGAAAGGAGAAAGAGTT against Col4a6, the z-score is inactive: -0.833.

As for GGGCAAGAAAGGUGUUUUGTT against Prdx5, the z-score is inactive: 0.469.

As for GGUUUUCAAACCCUUGUGGTT against Rnf44, the z-score was inactive: 0.232.

Consider GGGAUUUAAAGCCAACUUGTT against Sfpq, for which the z-score is inactive: 1.72.

As for GGAUUUGGCUACAAAAACATT against Ppib, the z-score is inactive: 0.381.

In the case of GCCGCAUAAUCAGAAAGGCTT against Pipox, the z-score is inactive: 0.183.

Turning to GGCCAAUGAUGAUAACAAATT against Catnd2, the z-score was inactive: 0.564.

Turning to GCUCGCAUUUCCAUAAUACTT against Gm225, the z-score is inactive: -0.805.

Consider CCUUAACUAUGGAGGAGUUTT against Rims4, for which the z-score is inactive: -0.34.

As to CGGCUUCUCUCUUUACACATT against Fosb, the z-score is inactive: 1.55.

For CGUCUCUGCUGAGAACAUGTT against Kcnk15, the z-score was active: 2.15.

In the case of GGUGAAACUUGUUGAUUUUTT against Map4k4, the z-score is inactive: 1.59.

GCUCUAGGCCAGAUGUUACTT against Slc13a3: the z-score was inactive: -1.04.

As to “CCCUAAAUGCUUCGUAUGCTT against D930036B08Rik”, the z-score is inactive: -0.118.

As to GCAUAGCUCAAAUCAAGGATT against Sik2, the z-score was inactive: 1.51.

On to “GCAUCAGAUUAGGCAGGAATT against 6030498E09Rik”, for which the z-score is inactive: -0.849.

On to GCUACAUUUCAUCAGCAAATT against Zfp336, for which the z-score was inactive: 0.508.

Take “GGCCAGUGUUACUGAGGAATT against 1700037C18Rik”: the z-score was inactive: -0.513.

With CGUAGACUCCAAGCUCAAUTT against Ddx54, the z-score is inactive: -0.414.

Turning to GGCACUAAAACAAUCGUCATT against Cyp26a1, the z-score was inactive: 0.726.

GGCUCUGCUAUUUCUCCUGTT against Olfr17: the z-score is inactive: -1.17.

Regarding “GGUUUGCCCUGACACUUGUTT against A330096I21Rik”, the z-score was inactive: -2.25.

As for CCGUUAAGCUCACUUGUCUTT against Notch4, the z-score was inactive: -0.159.

Consider GGGACCAACAUCAAUAAUGTT against Itih4, for which the z-score is inactive: 1.17.

Consider GUUUGCUGCACCCUACUUATT against Hist2h2be, for which the z-score was inactive: 1.4.

As for GCUACAUCGCUCUUAUAGCTT against Foxl1, the z-score was inactive: 0.432.

Regarding GGUUAAUCUUAACAACAUCTT against Tmod1, the z-score was inactive: 0.0275.

On to “GCUUGAGCUUAUUAAUGUUTT against C030032C09Rik”, for which the z-score was inactive: 0.173.

For the sequence GCUGUUAGGUUCAUUACCATT against Herc2, the z-score is inactive: -0.343.

Turning to “CCCAGGCAUACUACAAGGUTT against A330104H05Rik”, the z-score is inactive: -0.768.

As to GGCUUCUAGUGGGAUGUAATT against Dnb5, the z-score is inactive: -1.86.

As to GGACAUGUUCAAUGUGAAUTT against BC022224, the z-score is inactive: -0.155.

Consider GGAACAAAGGCUGAUCCAGTT against Chrnd, for which the z-score was inactive: -0.529.

As for “CCUCAUUCAGGGAGUUCCATT against 2200002J24Rik”, the z-score is inactive: -2.37.

Take CCAACAUUCACACAUCUGATT against Syngr2: the z-score was inactive: -0.853.

“GGGCUAUCUCAGGUGGAAUTT against E430012M05Rik”: the z-score is inactive: 1.37.

In the case of CCAUUAUCCUGGUGUGUAUTT against Olfr1362, the z-score is inactive: -1.92.

Consider GGUAGACCGUCCGAAAAGATT against D11Wsu47e, for which the z-score is inactive: -0.512.

With CCCGUUCAUAUACUUCUUUTT against Ebi2, the z-score is inactive: 0.742.

On to “GGAGAAAUUUCUGAGAAGATT against D630035O19Rik”, for which the z-score is inactive: 0.971.

With “GGCCAAUCAGAUAACUAAATT against 3110002L15Rik”, the z-score is inactive: -1.

For the sequence GGAGACCAUCAUGUCUUUATT against Olfr378, the z-score was inactive: 1.21.

“GGCAUCUUUUGAAACAAUATT against D0H8S2298E”: the z-score is inactive: 0.77.

“GGGCAUUGUCCGAAUGAAUTT against 4930433N12Rik”: the z-score was inactive: -0.589.

Consider GGUACAUGUCACUGUGGCATT against Itgbl1, for which the z-score is inactive: 0.414.

Take GUUGUCCAUAUCAUGUUUGTT against Olfr569: the z-score was inactive: -0.804.

In the case of CGGACAGUUAUUAUGCAUATT against Sdcbp, the z-score is inactive: 0.165.

CCGACAUAUUUGUAGCUGGTT against Cyp2c55: the z-score is inactive: -1.07.

With “CCUGGUCACAGGCAUUAAATT against 4930526D03Rik”, the z-score is inactive: -0.226.

For the sequence GGAUGUCACAUGACAGUUUTT against Tmprss4, the z-score is inactive: -2.77.

On to GCCGGUGACUUUCUAAUUUTT against BC023823, for which the z-score is inactive: -1.58.

Regarding GGUGACACAGUACAAGAAGTT against Rpl36a, the z-score is inactive: 1.33.

For GGCAGAAUUGGCACAGAAATT against U2af1-rs2, the z-score is inactive: -0.239.

Consider CGACGUGGCACAGAAUAUCTT against Ssbp1, for which the z-score was inactive: -0.1.

Turning to GGUGGUCCUGGCCUAUGAATT against Tpi1, the z-score is inactive: 1.17.

As for CCAUGUCGUAUGUGAUUCUTT against Hils1, the z-score was inactive: 2.07.

GGGUCCCAAACAAUAACUUTT against Aebp1: the z-score is inactive: 1.05.

GCAUCGUUACAGGACUUUATT against Enpp1: the z-score is inactive: -0.601.

Regarding “GGACUGGCUCUGAAAAAAATT against 2310066N05Rik”, the z-score is inactive: 0.186.

With GCGAGAGACAACUGACUAATT against Cnbp2, the z-score was inactive: -1.58.

Regarding CGUACAACACGGAAACCUATT against Paqr5, the z-score was inactive: 1.79.

For GCAAUAGCAGCAACUCUUATT against Dbpht1, the z-score is inactive: 0.61.

Regarding GGAGGGAGUAUAUUUUCUATT against Mgll, the z-score is inactive: -0.701.

GGCUGUAUGAAUCAAAGGATT against Nr5a2: the z-score is inactive: -1.06.

On to CCUAUUAUUCCAACUUUUGTT against Ceecam1, for which the z-score was inactive: 0.442.
